Experimental data reported in the supplement of paper PMC3334620.
Whole data set: some 33,000 sequences, median “E-score (-0.5 to 0.5)” near -0.0034, cut for the highest 2% near 0.25. Some of the results follow.

What follows are sequences tested against T1, Yap3 (UniProt P38749) (assay: PBM E-score (8-mer binding enrichment) (E-score (-0.5 to 0.5)); higher = stronger / more preferred TF binding). Conditions: protein concentration: 100 nM; construct: GST-full length.
T1 sequence: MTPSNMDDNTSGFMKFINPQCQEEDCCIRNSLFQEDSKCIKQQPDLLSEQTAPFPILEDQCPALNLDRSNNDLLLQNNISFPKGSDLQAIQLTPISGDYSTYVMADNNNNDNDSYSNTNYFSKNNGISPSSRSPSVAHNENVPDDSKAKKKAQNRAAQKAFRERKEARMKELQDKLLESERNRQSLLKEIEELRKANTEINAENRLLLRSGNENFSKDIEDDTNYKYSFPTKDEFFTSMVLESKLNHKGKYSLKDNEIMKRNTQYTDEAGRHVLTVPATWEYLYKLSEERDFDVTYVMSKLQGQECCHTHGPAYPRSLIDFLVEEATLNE
In short: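 Each ungapped eight-base word and its reverse complement, pooled, received an E-score from the Universal PBM Analysis Suite. Underlying scans, normalised with masliner, recorded fluorescent anti-GST bound to GST-tagged yeast transcription factors. These were applied at about 100-200 nM to universal all-10-mer Agilent arrays double-stranded by primer extension.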

Sequence	PBM E-score
GATACGGA	0.148
CTACGGAC	-0.217
GAGCGTTA	-0.0322
GCAAGCCA	-0.148
GAATATGC	0.039
TAAGATCA	0.0665
AGTTGTAT	0.103
ATTACGGG	0.0809
ACCCCGCA	-0.0321
AGAGTACA	-0.0359
CCTGTTGA	0.0279
AGACACCA	0.0323
TCGACCCA	-0.083
ATGCATGC	0.0181
AACGGAAC	0.155
GACTTGCA	-0.00365
AGCAATAA	0.0192
AGGCAAAT	0.128
AAAAACAG	0.00478
ATTCAAAT	0.171
CTCGCTAA	0.0462
AGATCGCT	-0.0566
GCGACGAC	-0.21
AGAGTGGA	-0.105

A different layout for part of the listing above.
Sequence | PBM E-score
AGATCGCT | -0.0566
GCGACGAC | -0.21

Carrying on:

Sequence	PBM E-score
GAACGCGC	0.131
ACCACAAT	-0.0179
CCATAGAG	-0.1
GAGACCTA	-0.0668
GCCGTTCA	-0.0133
CCACTAGC	-0.158
AATTCATG	0.17
CCACAAGG	-0.103
GCGGATCC	-0.106
ACTCACAA	0.125
AGGTGAAA	0.132
CACCGATC	0.0686
CAATGCCC	-0.0495
ACGAGTTC	0.129
CTACCTTC	0.0321
AGACGGTG	-0.182
CAGCAATG	-0.12
CAAGACAG	-0.164
GGCCAACA	0.0741
ACACAGAT	-0.0398
CCCAGCGA	-0.125
CTACTAAC	0.204
ATGGGGAC	-0.0269
ACCTCTCA	-0.0116

Sequence	PBM E-score
GCCGCCGC	-0.154
ATGCCGAC	0.00742
CTCATCGA	0.0406
AAAGCAGC	0.0963
ACTACCCG	-0.0183
CATGATTA	0.28
AACGCCAC	-0.0135
CAAAGACG	0.0173
CAGGCGTC	-0.186
ACTGACAG	0.143
ATGAACAG	-0.0211
AAGCTAGC	-0.00358
ATGCCGTG	-0.0106
AGGCTGAC	-0.0394
CCATAATC	0.144
GTTATTTA	0.165
AGCTTAGC	-0.0905
AAAGCTGA	-0.125
AGGTTTCC	-0.0838
CAATCGAC	0.00283
ACGAGAGT	0.0438
AGCGTTAG	-0.0215
CCCTTAGG	-0.237
GTGAAAAA	0.201

Sequence	PBM E-score
CTCCTCCA	-0.187
AGAGGAAC	0.0284
ATGAATAG	0.153
AGAGTGCG	0.0438
AGATCTAA	0.0587
GCCCGTAA	-0.0469
GGAATAGA	0.139
CAGAGAAG	-0.127
CGACCGAA	-0.0478
GAAGTTGA	0.0285
AAGGGTAT	0.115
TCTCAACA	0.11
GAACTCGC	0.0628
TCATTGCA	0.00796
AGAGTAAT	0.203
ACTTCCAG	-0.115
AGTAGCCG	0.117
AGAACGTA	-0.0166
AATTAGCG	0.2
CCCGCGCC	-0.253
ACCGCTGG	-0.16
CGCCCAAC	-0.0468
